Values after ≈ are worked out from the molar mass of the structure shown. At least one structure is not confirmed: it was looked up by name or label, or the drawing left a doubt.
Experiments:
[1] = Solubility in ethanol, DMSO and ethanol-Tween 80; format: physicochemical; settings: 100 mg/ml stock in ethanol/Tween 80 diluted 1:1, 1:5, 1:10 with water (50, 20, 10 mg/ml)
Description: After solution in ethanol or DMSO, or chemically similar solvents, NVX-207 or a related compound may be formulated with co-solvents such as Cremophor EL® and/or Tween® 80, in a similar manner described for taxanes. For example, the formulation approach for paclitaxel (TAXOL®; Bristol-Myers Squibb) was to use 50% Cremophor EL® and 50% ethanol. The pharmaceutical formulation of paclitaxel contains 30 mg paclitaxel dissolved in 5 ml of this (1:1, v/v) mixture. These and equivalent formulations allow for the application of NVX-207 in sufficiently high concentrations not only for topical, but also for intralesional and systemic (intravenous infusion) use. Solubility of NVX-207 in ethanol was determined to be at least 300 mg/ml and reached 250 mg/ml in DMSO. […] The solubility of NVX-207 in ethanol-Tween® 80 was evaluated. Two-hundred mg of NVX-207 was dissolved in 1 ml ethanol. […] Then an equal volume of Tween® 80 was added, to achieve a stock solution of 100 mg/ml of NVX-207. The stock solution was clear and yellow. Each stock solution was diluted first 1:1 (50 mg/ml NVX-207), then 1:5 (20 mg/ml NVX-207) and finally 1:10 (10 mg/ml NVX-207) with water. […] NVX-207 therefore has, apart from its higher activity, significant advantages over betulinic acid, that include higher activity, better solubility in pharmaceutically suitable solvents, and better handling.

[2] = tested on: melanoma, liposarcoma, colon-and lung cancer cells; test: Cell growth in select cancer cell lines, NVX-207 compared to betulinic acid (FIGS. 1A-D); format: cell-based, human
Description: FIGS. 1A-D show cell survival in select human cancer cell lines: 518A2 melanoma (FIG. 1A), SW872 liposarcoma (FIG. 1B), Caco-2 colon carcinoma (FIG. 1C) and A549 lung carcinoma (FIG. 1D). Cell survival as a percentage of untreated controls (y-axis) in response to NVX-207 (grey lines) or betulinic acid (black lines) in μg/ml (x-axis) are shown.
Melanoma cell lines used in this study were maintained in Dulbecco's modified Eagle medium (DMEM with 4500 mg/l glucose) supplemented with 10% FCS from Gibco BRL (Life Technologies, Berlin, Germany). The canine mastocytoma cell line C2 (DeVinney et al, Am. J. Respir. Cell Mol. Biol. 3:413-20, 1990) was used in this study, along with additional human cell lines: RD-ES and TC-71 (human Ewing's sarcoma), SAOS2 (human osteosarcoma), HT-1080 (human fibrosarcoma), Caco-2 (human colon adenocarcinoma), A549 (human lung adenocarcinoma), Hep-G2 and Hep-3B (human hepatocellular carcinoma), SK-N-DZ and SK-N-FI (human embryonal neuroblastoma), HTB9 (human bladder cancer), MDA-468 and MCF-7 (human breast cancer) and SW872 liposarcoma. All breast cancer cells were routinely cultured in DMEM/F-12 or in DMEM alone supplemented with 10% FCS at 37° C. in a humidified 5% CO2 atmosphere. RD-ES and TC-71 sarcoma cell lines were maintained in RPMI 1640 (Biochrom KG, Berlin, Germany) containing 10% FCS at 37° C. in a humidified 5% CO2 atmosphere. Neuronal cells were maintained as monolayers in RPMI-1640 medium supplemented with 10% FCS and 1% L-glutamine under standard cell culture conditions (37° C., 5% CO2) in a humidified incubator. Primary human umbilical endothelial cells (HUVEC) were obtained from Lonza GmbH (Wuppertal, Germany) and cultivated according to the manufacturer's instructions. […]
Briefly, cells were maintained in standard medium, harvested, and plated at equal densities (750,000 cells in 5 cm tissue culture dishes). […] For the assessment of cell growth, the number of surviving cells was determined using an automated cell counter from Beckman Coulter GmbH (Krefeld, Germany). […]

[3] = tested on: caspases 9, −3 and −7 and PARP; test: Caspase and PARP cleavage by Western blotting in human melanoma cells; format: cell-based
[4] = tested on: hyperkeratotic palpable lesion with inflammatory components; test: Topical treatment of human hyperkeratotic lesions with inflammatory components; format: in vivo
Description: A 1% topical solution of NVX-207 (20% ethanol, 20% Tween® 80 and 80% water) was applied to human skin to treat a treatment resistant hyperkeratotic palpable lesion with inflammatory components. The NVX-207 was administered once a day on days 1, 2, 3, 10, 11, 12 and 13. Significant improvement (better than 80% reduction) was observed after one day, and additional improvement was observed after a total of six additional treatments applied within 14 days. […] A second identical lesion was treated with the same formulation twice a day for 2 days, and disappeared.

[5] = tested on: canine lesion clinically diagnosed as basal cell carcinoma; test: Topical treatment of canine basal cell carcinoma; format: in vivo, dog
Excerpt: A 1% topical solution of NVX-207 in 20% ethanol, 20% Tween® 80 was applied to an exophytically growing slightly bleeding (on contact) tumor on the nose of a dog using a NVX-207 soaked cotton swab every second to third day for 7 weeks.

[6] = tested on: canine mammary carcinoma, scent gland carcinoma, soft tissue sarcoma; test: Activity of NVX-207 in additional canine cancer patients (summary); format: in vivo, dog; settings: one case mammary carcinoma, two soft tissue sarcoma
Excerpt: Overall survival time is given in months.

[7] = tested on: pigs; settings: topical administration for two weeks
[8] = tested on: human keratinocytes; settings: Galgon et al., Exp Dermatol. 14:736-43, 2005; cited from earlier work

Compound	Appearance of ethanol-Tween 80 stock solution after dilution with water [1]	Growth of all tumor cell lines investigated ([2]; concentrations above 2.0-2.5 μg/ml (>4.0 μM))	Effectiveness in cell growth inhibition compared to betulinic acid ([2]; depending on the cell line and the concentration)	PARP cleavage compared to betulinic acid treated cells ([3]; NVX-207 8.3 μM vs betulinic acid 21 μM)	Activation of the intrinsic apoptotic pathway (cleavage of caspases and PARP) ([3]; human melanoma cells, NVX-207 8.3 μM)	State of initial lesion ([4]; 1% topical solution once a day on days 1, 2, 3, 10, 11, 12, 13, after 14 days)	State of second identical lesion ([4]; same formulation twice a day for 2 days)	Bleeding of tumor ([5]; after 3 weeks)	State of lesion ([5]; by week 7, except for a small prominent scar)	Re-growth ([5]; twenty weeks after the end of treatment)	Treatment effect [6]	Overall tolerability [7]	Cell growth in all four cell lines ([2]; concentrations up to 10 μg/ml)	IC50 in human keratinocytes [8]
C=C(C)[C@@H]1CC[C@]2(C(=O)OCC(N)(CO)CO)CC[C@]3(C)[C@H](CC[C@@H]4[C@@]5(C)CC[C@H](OC(C)=O)C(C)(C)[C@@H]5CC[C@]43C)[C@@H]12 [NVX-207, 3-O-acetylbetulinic acid-2-amino-3-hydroxy-2-hydroxymethylpropyl ester]	remained clear	almost completely inhibited	several fold more effective	more rapidly and after treatment with lower concentrations	cleavage of caspases 9, −3 and −7 and of PARP	no longer visible or palpable	disappeared	bleeding stopped	almost disappeared	no evidence of re-growth	effectively treated	well tolerated in all animals tested		
C=C(C)[C@@H]1CC[C@]2(C(=O)O)CC[C@]3(C)[C@H](CC[C@@H]4[C@@]5(C)CC[C@H](O)C(C)(C)[C@@H]5CC[C@]43C)[C@@H]12 [betulinic acid, reference compound]													did not fully inhibit cell growth	~5.0 µg/mL (≈ 10.9 µM)

Source: patent US20150306110A1, “COMPOSITIONS AND METHODS FOR TREATMENT OF INFLAMMATION AND HYPERKERATOTIC LESIONS” (Novelix Pharmaceuticals, Inc., priority 2008, published 2015)
